1 substance from publication PMC8354175 can be followed below.

By UniProt entry, the sequences of proteins in these tests, tags left out. Residues count along the entry.
UniProt P01137, residues 279-390: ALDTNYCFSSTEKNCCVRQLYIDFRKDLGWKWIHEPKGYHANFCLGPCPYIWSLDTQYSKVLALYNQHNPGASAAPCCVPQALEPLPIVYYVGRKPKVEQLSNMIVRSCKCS

These are yes or no findings as the source states them, for the method shown. Binding seen in cells or lysates may run through a third protein. Some binding calls cover weakened binding; strength is not graded here.

For the test, the target named is T1, bone morphogenetic protein and activin membrane-bound inhibitor (human (endogenous in BPH-1)) (UniProt Q13145).
T1 sequence: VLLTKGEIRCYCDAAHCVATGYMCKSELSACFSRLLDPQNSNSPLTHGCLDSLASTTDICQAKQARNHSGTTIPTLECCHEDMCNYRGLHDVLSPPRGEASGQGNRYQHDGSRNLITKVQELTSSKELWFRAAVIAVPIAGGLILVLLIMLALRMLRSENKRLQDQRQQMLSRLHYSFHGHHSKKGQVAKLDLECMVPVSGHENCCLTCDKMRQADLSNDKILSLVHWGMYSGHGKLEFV
The test can be described thus: co-IP; antibodies against TGF-β1 or BAMBI immobilised on resin; BPH-1 cell lysate supernatant incubated at 4 °C for 1 h; eluate blotted with anti-TGF-β1 or anti-BAMBI; cells treated with LPS, TGF-β1 and with or without curcumin.

Regarding “transforming growth factor β1 (from UniProt P01137 279-390) (ligand)”, the binding result is reported as “binds”.
